Results taken from PubChem BioAssay AID2551 (National Center for Advancing Translational Sciences (NCATS), 2010).
Out of some 310,000 compounds screened, about 17,000 (5.5%) were called active. The inconclusive results got no clear call from the source; some entries with a clear call stand among them for comparison. Calls follow the shape of the dose curve; as a rule, active = well fitted inhibition curve with a large enough effect; inconclusive = small, poorly fitted or top-dose-only effect, or effect the other way; inactive = no such curve, though single readings can be large or run the other way. Potencies of inconclusive entries are doubtful fits and often do not repeat.

By UniProt entry, the sequences of proteins in these tests, tags left out. Where a name states a change or a piece, a line headed by the entry shows the natural chain unless it says otherwise.
UniProt P51450: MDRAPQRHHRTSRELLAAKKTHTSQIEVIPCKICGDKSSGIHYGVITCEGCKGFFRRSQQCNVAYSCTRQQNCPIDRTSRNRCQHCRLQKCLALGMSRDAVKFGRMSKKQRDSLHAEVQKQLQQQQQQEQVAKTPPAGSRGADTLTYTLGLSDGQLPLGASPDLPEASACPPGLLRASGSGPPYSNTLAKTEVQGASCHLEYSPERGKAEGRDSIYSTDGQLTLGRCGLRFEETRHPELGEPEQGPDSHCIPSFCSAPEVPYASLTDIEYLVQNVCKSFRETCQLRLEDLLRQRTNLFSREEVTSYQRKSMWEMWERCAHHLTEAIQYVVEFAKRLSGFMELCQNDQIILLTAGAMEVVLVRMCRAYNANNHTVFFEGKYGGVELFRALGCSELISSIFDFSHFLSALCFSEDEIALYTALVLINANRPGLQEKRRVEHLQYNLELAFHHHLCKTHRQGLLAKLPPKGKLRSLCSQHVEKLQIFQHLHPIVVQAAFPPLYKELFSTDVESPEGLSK

The molecules below were run against Nuclear receptor ROR-gamma (Mus musculus) (UniProt P51450) (assay: qHTS for inhibitors of ROR gamma transcriptional activity). Settings: Drosophila S2 Gal4-RORgamma UAS-luciferase reporter, 20 h; series mostly up to 53.6 µM.
Summary of the method: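 Luciferase reporter read in Schneider cells carrying Gal4-RORγ (mouse) and UAS-Photinus luciferase; cells given compound 1 h before 700 uM copper sulfate induction, then incubated 20 h at ambient temperature.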
Also: nearly all actives have a fitted effect of over 60% in size.
Potency is read from the fitted curve at half-maximal effect.

Potency, active:
CCOc1ccc(NC(=S)Nc2ccc(OC)cc2)cc1 7.94 µM
CN1CCN(C(=O)c2cc(COc3c(F)cccc3F)on2)CC1c1ccccc1 (stereo not drawn) 7.08 µM
Oc1c(Br)cc(/C=N/NC(=S)NCC2CCCO2)cc1Br (stereo not drawn) 0.1 µM
Cc1ccccc1NC(=S)N1CCCCCC1 11.2 µM
CN(C)c1ccc(C(=S)NCc2ccco2)cc1 3.98 µM
Cc1ccc(CN=Cc2[nH]c3ccc(Br)c(Cl)c3c2O)cc1 12.6 µM
CC1CCN(c2[nH]c(=S)c(C#N)c3c2CCCC3)CC1 7.08 µM
CC(=C/c1ccccc1)/C=N/NC(=O)c1ccccn1 8.91 µM
Cc1sc2ncnc(N/N=C/c3ccc(O)cc3)c2c1C 15.8 µM
Cc1ccccc1NC(=S)N/N=C/C(C)c1ccccc1 (stereo not drawn) 1.78 µM
Cc1ccc(-c2c(C(=O)N/N=C/c3ccco3)nnn2-c2nonc2N)cc1 6.31 µM

An excerpt from above in order of molar mass, smallest number first:
Potency, active:
CN(C)c1ccc(C(=S)NCc2ccco2)cc1 3.98 µM
CC(=C/c1ccccc1)/C=N/NC(=O)c1ccccn1 8.91 µM
CC1CCN(c2[nH]c(=S)c(C#N)c3c2CCCC3)CC1 7.08 µM
Cc1ccc(CN=Cc2[nH]c3ccc(Br)c(Cl)c3c2O)cc1 12.6 µM
Oc1c(Br)cc(/C=N/NC(=S)NCC2CCCO2)cc1Br (stereo not drawn) 0.1 µM

Following part:

Potency, inactive:
COc1ccc(-c2nc(-c3ccccc3OC)no2)cc1OC
COc1cc(/C=N/O)cc(Cl)c1OC
O=C(O)CCS(=O)(=O)Cc1ccccc1F
CCn1cc(CN(C)C(=O)/C=C/c2ccc([N+](=O)[O-])cc2)c(C)n1
COc1ccc(-c2nnn(CC(=O)N(CC(=O)NC3CCCC3)c3ccccc3)n2)cc1OC
Cc1ccc(NC(=O)C2CCCN(C(=O)NCc3ccccc3)C2)c(C)c1 (stereo not drawn)
CCn1c(-c2ccccc2Cl)nn(CC(=O)Nc2ccccc2C)c1=S
O=C(Nc1cccc(S(=O)(=O)NC2=NCCCCC2)c1)c1cc(-c2ccccc2Cl)nc2ccccc12
CCN(CC)S(=O)(=O)c1cccc(-c2nnc(SCC(=O)c3ccc(Cl)s3)n2C)c1

Reprinted from above (two entries):
Potency, inactive:
CCn1cc(CN(C)C(=O)/C=C/c2ccc([N+](=O)[O-])cc2)c(C)n1
COc1ccc(-c2nnn(CC(=O)N(CC(=O)NC3CCCC3)c3ccccc3)n2)cc1OC

Following part:

Potency, inconclusive:
CO/N=C/c1ccc(N2CCN(C(=O)c3cccc(C(F)(F)F)c3)CC2)c([N+](=O)[O-])c1 4.47 µM [inhibitor, single point]
COc1ccc(/C=C\C(=O)c2c(O)ccc3c(C)cc(=O)oc23)cc1 35.5 µM [inhibitor, single point]
COc1cccc(/C=N/NC(=O)c2c(C)nc3ccc(Cl)cn23)c1OC 35.5 µM [inhibitor, single point]
COc1ccc(CN(C(=O)c2cc3ccccc3oc2=O)C2CCCCC2)cc1OC 5.62 µM [inhibitor, single point]
S=c1[nH]nc(C2CCCCC2)n1/N=C/c1ccco1 17.8 µM [inhibitor, single point]
Cc1nn(C)cc1CNC(=O)Nc1ccc(Cl)c(Cl)c1 0.355 µM [activator, partial curve]
Cc1ccsc1/C=N/n1c(-c2ccncc2)n[nH]c1=S 22.4 µM [inhibitor, single point]
Cc1cc(C)nc(N2CCCC(C(=O)NCCc3ccc(F)cc3)C2)n1 (stereo not drawn) 35.5 µM [inhibitor, single point]
COc1ccc(NC(=S)N2CCCC(c3nc4ccc(C)cc4[nH]3)C2)c(OC)c1 (stereo not drawn) 35.5 µM [inhibitor, single point]
O=C(N=Nc1c(O)[nH]c2ccccc12)c1cccs1 3.55 µM [inhibitor, full curve, poor fit]
CC(=O)C(C)n1cnc2scc(-c3ccc(C)cc3)c2c1=O (stereo not drawn) 5.01 µM [activator, partial curve]
CC(C)(C)C1CCc2c(sc3ncn(N)c(=N)c23)C1 (stereo not drawn) 17.8 µM [inhibitor, single point]
CC(=O)c1c(N2CCOCC2)nc(=S)n(Cc2ccccc2)c1C 4.47 µM [inhibitor, single point]
OCc1ccc(OCCCOc2cccc3cccnc23)cc1 22.4 µM [activator, single point]
CCCCn1c(SCC(=O)Nc2ccc3c(c2)OCO3)nc2c1c(=O)n(C)c(=O)n2C 35.5 µM [activator, single point]
COC(=O)c1cc(NC(=S)NCc2ccc(Cl)cc2)cc(C(=O)OC)c1 35.5 µM [inhibitor, single point]
COC(=O)C1=C(C)NC(C)=C(C(=O)OC(C)(C)CN(C)CCC(c2ccccc2)c2ccccc2)C1c1cccc([N+](=O)[O-])c1 (stereo not drawn) 22.4 µM [activator, single point]
Cc1oc2ccc(OC(=O)c3cccs3)cc2c1C(=O)OC(C)C 12.6 µM [activator, partial curve]
Cc1cccc(NC(=O)CCOc2ccccc2)c1 12.6 µM [activator, single point]
O=C(CNS(=O)(=O)c1ccc(Br)s1)N1CCN(c2ccc(F)cc2)CC1 14.1 µM [activator, partial curve, poor fit]
CCCCOC(=O)c1cccc(NC(=O)CC)c1 28.2 µM [activator, single point]
O=C1NC(=O)/C(=C\c2ccc(Br)o2)S1 1.26 µM [activator, partial curve]
COC(=O)c1c(C)c(C)nc(N)c1C#N 35.5 µM [inhibitor, single point]
Oc1ccccc1CNc1cnc2ccccc2c1 31.6 µM [activator, single point]
CN(Cc1ccccc1)C(NC(=O)c1ccco1)C(Cl)(Cl)Cl (stereo not drawn) 5.62 µM [inhibitor, single point]
O=C(c1cc(-c2cccs2)nc2ccccc12)N1CCN(c2ccccc2O)CC1 7.94 µM [activator, partial curve]
O=c1[nH]c(/C=C/c2ccccc2[N+](=O)[O-])nc2ccccc12 3.16 µM [activator, partial curve]
O=C(NC(=S)Nc1ccc(Cc2ccncc2)cc1)c1ccccc1 17.8 µM [inhibitor, single point]
